The values that follow come from PubChem BioAssay AID2685 (National Center for Advancing Translational Sciences (NCATS), 2010).

This is one part of the list. The main result of the screen is listed elsewhere. These columns were measured beside it and carry no call. Compounds called inactive in the main read-out are mostly missing here. Words in brackets tell the shape of the fitted curve; partial curves, single points and poor fits give uncertain potencies.

The assay can be described thus: qHTS Assay for Lipid Storage Modulators in Drosophila S3 Cells.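 For cell number change: cells counted by Cell Tracker Red CMTPX staining in the red channel.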 The conditions noted are these: BODIPY lipid droplet fluorescence, 18-24 h; for cell number change: measured here: cell count max response, cells fed with added oleic acid. A digest of the protocol:
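Drosophila S3 cells loaded with oleic acid (400 uM, as added) and compounds at several concentrations; lipid droplets imaged by 488-nm laser-scanning cytometry, 500–530 nm intensity and object ratio to cell channel. Percent activity normalized to 20 uM Triacsin C.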

Setting [1] is: measured here: lipid fluorescence (Fed channel) AC50, cells fed with added oleic acid.
The mark [2] stands for this setting: measured here: cell number channel AC50, cells fed with added oleic acid.

`COC(=O)NNC(=O)c1ccccc1C`: the half-maximal activity concentration (AC50) (usually the concentration at which the activity in the assay is half-maximal) under setting [1] was 23.1 µM [falling, partial curve]. As to `CCN(CC(=O)Nc1ccc(Br)cc1)C(=O)Cc1cccc(F)c1`, the cell number change was 7.83%.

For the compound `CC(=O)Nc1ccc(/C=N/Nc2nc3ccccc3[nH]2)cc1`, the cell number change was -14.9%. Under setting [1], the concentration at half-maximal activity (AC50) is 29.1 µM [falling, single point]. `COc1nc(-c2ccccc2)ncc1S(=O)(=O)c1ccccc1`: the cell number change is -32%. `Cn1cccc1C(=O)OCc1csc(-c2ccccc2)n1`: the cell number change was -14.1%. Besides, the half-maximal activity concentration (AC50) under setting [1] was 0.0651 µM [falling, full curve, poor fit]. Consider `Cc1cccn2c(=O)nc(SCC(=O)Nc3ccc4c(c3)OCCO4)nc12`, for which the cell number change was determined as 42.2%. Besides, the AC50 under setting [2] is 0.82 µM [rising, full curve, poor fit]. `CC(C)Cc1cc(C(=O)NCCc2ccccc2)no1`: the cell number change was -11.1%. For the same compound, the AC50 under setting [1] is 5.8 µM [falling, full curve]. Take `COc1ccc(NC(=O)c2cc3c(CO)cnc(C)c3oc2=Nc2cccc(C)c2)c(OC)c1`: the cell number change was -2.78%.

For the compound `COc1ccc(N2CCN(C(CNC(=O)C(=O)NCc3cccs3)c3ccco3)CC2)cc1` (stereo unspecified), the cell number change is -15.6%. For the same compound, the AC50 under setting [2] is 0.0058 µM [falling, full curve, poor fit].

On to `O=C(CN1C(=O)c2cccnc2Oc2ccc(Cl)cc21)NC1CCCC1`, for which the cell number change was determined as 9.27%. Besides, under setting [1], the AC50 was 0.731 µM [falling, full curve]. Take `O=C(CCN1CCOCC1)NC1CCCN(Cc2ccccc2F)C1` (stereo unspecified): the cell number change is 4.33%. On to `COc1ccccc1C(=O)Nc1cccc(NC(=O)c2ccccc2OC)n1`, for which the cell number change was -2.05%. Moreover, the concentration at half-maximal activity (AC50) under setting [1] was 3.26 µM [falling, full curve].

On to `CC(C)OP(=O)(OC(C)C)C(Nc1ccccc1)c1cccnc1` (stereo unspecified), for which the cell number change was -0.819%. Further, under setting [1], the AC50 was 29.1 µM [falling, single point]. `CS(=O)(=O)N(CC(=O)N1CCCCC1)Cc1ccccc1`: the cell number change was -18.2%. Also, the AC50 under setting [1] is 1.46 µM [falling, partial curve]. Take `CCc1cc2c(=O)c(-c3ccc(F)cc3)c(C(F)(F)F)oc2cc1OCC(=O)O`: the cell number change came to 128%. For the same compound, the AC50 under setting [2] is 29.1 µM [rising, single point]. For the same compound, the half-maximal activity concentration (AC50) under setting [1] was 29.1 µM [rising, single point]. As for `CCOC(=O)c1c(C)[nH]c(C(=O)N/N=C/c2cc([N+](=O)[O-])ccc2O)c1C`, the cell number change stood at 50%. Further, under setting [2], the AC50 is 3.26 µM [rising, full curve]. Consider `COc1ccc(-c2cc3cc(-c4cc(OC)c(OC)c(OC)c4)ccc3o2)cc1`, for which the cell number change is -1.58%. In the case of `CCN1CCCC1CNC(=O)CN(C)S(=O)(=O)c1ccc(Cl)cc1` (stereo unspecified), the cell number change was found to be 2.1%.

In the case of `Cc1c(NC(=O)CCC(=O)N2CCCCC2)c(=O)n(-c2ccccc2)n1C`, the cell number change stood at 4.23%. Besides, under setting [1], the half-maximal activity concentration (AC50) was 29.1 µM [falling, single point]. Regarding `COc1ccc(/C=C/c2nnc(NC(=O)COc3cccc(C)c3)s2)cc1`, the cell number change is -3.37%. For `O=C(O)CCSc1nc2ccc(Br)cc2[nH]1`, the concentration at half-maximal activity (AC50) under setting [1] is 16.4 µM [rising, single point]. With `N#CCCN1CCN(C(=S)c2ccc(-c3cc(Cl)ccc3Cl)o2)CC1`, the cell number change worked out at 5.1%.

As for `O=C1/C(=C/c2cccc(F)c2)Oc2cc(O)ccc21`, the cell number change was found to be 1.8%. In addition, the AC50 under setting [1] is 29.1 µM [falling, single point]. Regarding `OCCCc1nc2ccccc2n1CCOc1ccccc1`, the cell number change is -11.8%. In addition, under setting [1], the concentration at half-maximal activity (AC50) was 0.0651 µM [falling, full curve, poor fit]. As for `Cc1cc(C)nc(Nc2ncc(O)n2-c2ccc(Br)cc2)n1`, the cell number change is -0.621%. Under setting [1], the AC50 was 6.51 µM [falling, single point].

Turning to `COc1ccccc1CNC(=O)N1CCN(c2ccccc2Cl)CC1`, the cell number change was -11.3%. With `CCCc1cc(=O)[nH]c(SCc2nc3ccccc3o2)n1`, the cell number change came out at 5%. For the same compound, the AC50 under setting [1] is 10.3 µM [falling, single point]. On to `Cc1cccc(-c2nc(CS(=O)CC(=O)NCc3cccs3)c(C)o2)c1` (stereo unspecified), for which the cell number change was -5.67%. As for `C=CCCC(=O)Nc1nc(C)c(-c2csc(Nc3ccc(Cl)cc3Cl)n2)s1`, the cell number change was -25.9%. For the same compound, the AC50 under setting [1] was 0.651 µM [falling, full curve, poor fit]. As for `COc1cccc(NC(=O)CN2C(=O)NC(C)(c3ccc(C)cc3)C2=O)c1` (stereo unspecified), the cell number change is -0.901%. Turning to `CCOC(=O)c1ccc(S(=O)(=O)NNC(=O)COc2ccc(C)cc2)cc1`, the cell number change worked out at 1.36%. The concentration at half-maximal activity (AC50) under setting [1] was 7.31 µM [rising, partial curve].

With `CC(C)(C)NC(=O)Cn1nc(C(F)(F)F)c2c1CCCC2`, the cell number change amounted to 9.46%. Besides, under setting [1], the half-maximal activity concentration (AC50) is 0.517 µM [falling, single point]. Regarding `COc1ccc(S(=O)(=O)NC(C)c2ccccc2)cc1C(=O)N1CCCCC1` (stereo unspecified), the cell number change was determined as 8.11%. Take `CNC(=S)NNC(=O)Cc1ccc(O)cc1`: the cell number change was -18.4%. Moreover, the AC50 under setting [2] is 6.51 µM [rising, single point]. Also, the AC50 under setting [1] is 25.9 µM [falling, partial curve]. For `CN(c1ccccc1)S(=O)(=O)c1ccc(Cl)c(C(=O)NCC(c2ccco2)N2CCCC2)c1` (stereo unspecified), the cell number change was 0.435%. As for `O=C1c2ccccc2C(=O)C2OC12` (stereo unspecified), the cell number change is -48.7%. For the same compound, the half-maximal activity concentration (AC50) under setting [2] is 13 µM [falling, partial curve]. Also, the AC50 under setting [1] is 13 µM [falling, partial curve]. Turning to `NNC(=O)c1ccc2nc(-c3ccc(Br)cc3)cn2c1`, the cell number change is -16.8%. The AC50 under setting [2] was 0.0116 µM [rising, full curve, poor fit].

On to `Cc1cccc(Nc2cc(=O)[nH]c(=O)[nH]2)c1`, for which the cell number change worked out at 18.2%. For the same compound, the AC50 under setting [1] was 9.2 µM [rising, partial curve, poor fit]. On to `COc1ccc(CNC(=O)CN2C(=O)C(c3ccccc3)Oc3cccnc32)cc1` (stereo unspecified), for which the cell number change is -1.73%. Moreover, the AC50 under setting [1] is 6.51 µM [rising, single point]. As to `CC(C)c1ccc(OCC(=O)NCc2n[nH]c(=O)c3ccccc23)cc1`, the cell number change was -56.1%. Besides, under setting [2], the half-maximal activity concentration (AC50) is 23.1 µM [falling, partial curve]. Also, the half-maximal activity concentration (AC50) under setting [1] was 5.17 µM [falling, partial curve, poor fit].

`CCOc1ccc(CCNC(=O)C2CCCN(c3ncnc4c3nc3n4CCCCC3)C2)cc1` (stereo unspecified): the cell number change was determined as 9.16%. The AC50 under setting [2] was 6.51 µM [rising, single point]. The AC50 under setting [1] is 6.51 µM [rising, single point]. Turning to `O=C(NCC(=O)N(Cc1ccco1)C(C(=O)NC1CCCCC1)c1cccnc1)c1ccco1` (stereo unspecified), the cell number change is 25.4%. Under setting [1], the half-maximal activity concentration (AC50) was 0.731 µM [rising, single point]. Consider `CCOC(=O)c1c(NC(=O)C(=O)N/N=C/c2ccccc2OC)sc2c1CCCCC2`, for which the cell number change is 3.33%. Further, the concentration at half-maximal activity (AC50) under setting [1] was 6.51 µM [rising, single point].
